Laboratory results from PubChem BioAssay AID624415 (National Center for Advancing Translational Sciences (NCATS), 2012).
Out of some 390,000 compounds screened, about 60 (0.02%) were called active. Inconclusive results, whose numbers are uncertain, are shown with a selection of clear calls. No stated cut-off is given here; in the data, active means activity change below about -50%; inconclusive means between about -30% and that limit; inactive means weaker than that.

Protein sequences, listed by entry. Tags and fused reporters are not part of them.
UniProt Q9GZU1, whole entry, looked up: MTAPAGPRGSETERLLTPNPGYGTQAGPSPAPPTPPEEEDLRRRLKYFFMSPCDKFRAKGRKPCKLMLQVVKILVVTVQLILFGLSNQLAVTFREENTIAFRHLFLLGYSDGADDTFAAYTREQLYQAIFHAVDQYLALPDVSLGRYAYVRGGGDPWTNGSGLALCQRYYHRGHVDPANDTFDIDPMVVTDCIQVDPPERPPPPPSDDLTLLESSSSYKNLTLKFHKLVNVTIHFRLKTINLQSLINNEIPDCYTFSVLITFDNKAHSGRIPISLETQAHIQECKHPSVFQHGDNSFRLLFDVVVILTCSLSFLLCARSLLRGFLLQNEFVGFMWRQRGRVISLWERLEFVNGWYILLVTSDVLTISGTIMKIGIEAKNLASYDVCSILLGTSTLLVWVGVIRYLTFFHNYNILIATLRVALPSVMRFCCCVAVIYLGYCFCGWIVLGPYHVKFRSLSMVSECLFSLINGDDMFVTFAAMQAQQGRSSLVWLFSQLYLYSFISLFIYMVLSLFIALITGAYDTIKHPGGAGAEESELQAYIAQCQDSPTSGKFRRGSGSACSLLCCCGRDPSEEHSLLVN

The compounds below were run against Mucolipin-1 (Homo sapiens) (UniProt Q9GZU1) (assay: qHTS for Inhibitors of the Human Mucolipin Transient Receptor Potential 1 (TRPML1)). Conditions: TRPML1-inducible cells, Ca2+ dye fluorescence, FDSS; active compounds read low; inhibition of EC80 agonist-evoked calcium signal.
Procedure, shortened: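 Tet-induced TRPML1-DL cells loaded with Ca8 no-wash calcium dye were read kinetically on FDSS. Compound addition was followed by EC80 agonist 54-4 (4 uM final); inhibition was read over 110 s.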
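Further: stimulus is agonist 54-4 at its EC80 concentration.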
On the % scale 0 is the no-effect control and ±100 the full control effect.

SMILES | activity change, negative = inhibition
COc1ccc(NC(=O)c2ccc(-c3nc(CSc4ccc(C)cc4)c(C)o3)cc2)cc1Cl | inactive: -13.7%
COc1ccc(CN(C(=O)c2snc(C(N)=O)c2N)C(C(=O)NC2CCCC2)c2cc(OC)ccc2OC)cc1 (centres undefined) | inactive: -3.02%
Cc1cccc(-n2ncc(C(=O)N3CCN(C4CCCCC4)CC3)c2C2CCN(C(=O)OC(C)(C)C)CC2)c1 | inconclusive: -35.2%
N#Cc1c(-c2ccccc2)ccn(Cc2ccccc2Cl)c1=O | inactive: 24.1%
Cc1sc2ncnc(NC(C)C(=O)O)c2c1C (centres undefined) | inconclusive: -37.2%
Cc1ccc(NC(=O)c2ccc(-c3cccc(Cl)c3C)o2)cc1 | inactive: 21.1%
O=C(Nc1cccc(/C=C/c2ccccn2)c1)c1ccc(-n2cncn2)cc1 | inconclusive: -33.1%
CCOc1ccc(C(=O)CCC(=O)N(CC)CC(=O)NCc2ccc(Cl)cc2)cc1 | inactive: 11.4%
C/C(CC(=O)Nc1c(C)cc(C)cc1C)=N\NC(=O)Cc1ccccc1 | inconclusive: -40.9%
CNC(=O)CN1C(=O)c2cccnc2Sc2ccccc21 | inconclusive: -32.7%
CCN(CC)C(=O)C1=C(C)N(Cc2ccc(F)cc2)C(=O)C(CC(=O)NC2CCCC2)C1 (centres undefined) | inconclusive: -33.9%
COc1ccc(S(=O)(=O)N2CCOc3ccccc32)cc1 | inactive: -22.5%
NC(=O)c1ccc(NC(=O)CSc2nncn2-c2ccccc2)cc1 | inconclusive: -33.5%
COc1ccc(/C=C(\C#N)C(=O)OCC(=O)NC2CC2)cc1 | inconclusive: -46.2%
C=C(C1=CCN(S(=O)(=O)C(C)(C)C)[C@@H]1CCO)c1ccccc1 | inactive: 39.9%
COc1ccc(/C=C/C=C2\NC(=S)NC2=O)cc1 | inactive: -0.739%
CC(C)N1C(=O)S/C(=C/c2ccc(Sc3nc4ccccc4[nH]3)o2)C1=O | inconclusive: -33.3%
Cc1ccc(CN2C(=O)N/C(=C\c3ccc(-c4ccc(C(=O)O)cc4C)o3)C2=O)cc1 | inactive: -0.458%
S=c1[nH]nc(COc2ccccc2)n1/N=C/c1ccc(Br)cc1 | inconclusive: -40.2%
COC(=O)c1c(NC(NC(=O)C(C)(C)C)C(Cl)(Cl)Cl)sc2c1CCC2 (centres undefined) | inconclusive: -31.7%
Cc1nc2nc(-c3ccccc3)[nH]n2c(=O)c1C | inconclusive: -37%
COc1ccccc1N1CCN(C2CCCN(C(=O)c3cc(C4CC4)on3)C2)CC1 (centres undefined) | active: -61.2%
COc1cccc(C(=O)N2CCN(Cc3ccccn3)CC2)c1 | inconclusive: -41.4%
CCn1cc([N+](=O)[O-])nc1C | inconclusive: -37.9%

Given as tab-separated lines: part of the list above.
SMILES	activity change, negative = inhibition
COc1ccccc1N1CCN(C2CCCN(C(=O)c3cc(C4CC4)on3)C2)CC1 (centres undefined)	active: -61.2%
COc1cccc(C(=O)N2CCN(Cc3ccccn3)CC2)c1	inconclusive: -41.4%
